From publication PMC11099078 come the findings set out here.

These are yes or no findings as the source states them, for the method shown. Some binding calls cover weakened binding; strength is not graded here.

The target of this test is GCP3 (γ-tubulin complex protein 3, Xenopus laevis) (X. laevis (endogenous in egg extract)) (UniProt O73787). The test can be described thus: cryo-EM structure; native γ-TuRC-capped MT minus ends from X. laevis egg extract, Paclitaxel or docetaxel; γ-TuRC-focused refinement 17 Å, MT-dominated refinement 23 Å; rigid-body docking of models.

Regarding “MZT1 (mitotic spindle organizing protein 1, Xenopus laevis) (from UniProt Q5U4M5 1-72)”, the binding entry is “binds”.
